# From PubChem BioAssay AID504834 (National Center for Advancing Translational Sciences (NCATS), 2011)
# The campaign covered roughly 320,000 compounds. About 22,000 (6.9%) were called active. The inconclusive results got no clear call from the source; some entries with a clear call stand among them for comparison. The call rests on the fitted dose curve; in most records, active means well fitted inhibition curve with a large enough effect; inconclusive means small, poorly fitted or top-dose-only effect, or another doubt; inactive means no such curve, though single readings can be large or run the other way. A potency beside an inconclusive call is a rough fit, not a confirmed value.
# Test: Primary qHTS for delayed death inhibitors of the malarial parasite plastid, 96 hour incubation
# Settings: P. falciparum luciferase reporter growth; series mostly up to 28.7 µM
# Summary of the method: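 Plates of compound plus infected erythrocytes (2% hematocrit, 0.05% parasitemia final) incubate 96 hours, 37 C, 5% CO2. Detection reagent added; reduced luminescence from the parasites' luciferase reporter flags inhibition.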
# Potency means the concentration at half of the fitted maximal effect.
row,SMILES,Potency
1,O=C(CN1CCN(Cc2ccccc2F)C1=O)NCc1cccnc1,"inconclusive: 6.57 µM [inhibitor, partial curve, poor fit]"
2,O=C(CCCN1C(=O)/C(=C/c2cccs2)SC1=S)Nc1cccc(C(=O)O)c1,"inconclusive: 4.15 µM [inhibitor, partial curve, poor fit]"
3,Cc1cccc(C(=O)Nc2cc(Cl)ccc2-n2cncn2)c1[N+](=O)[O-],inactive
4,O=C(NC(=S)Nc1ccc(CN2CCOCC2)cc1)c1ccc2c(c1)OCCO2,inactive
5,O=C(Nc1ccc(NC(=O)c2ccccn2)cc1)C(=O)Nc1ccc2c(c1)OCCO2,"inconclusive: 9.28 µM [inhibitor, single point]"
6,Cc1ccc(Nc2ccccc2N)cc1,"inconclusive: 18.5 µM [inhibitor, single point]"
7,O=c1cc(-c2ccc3c(c2)OCCO3)oc2ccc(Cl)cc12,inactive
8,O=C(CC12CC3CC(CC(C3)C1)C2)N/N=C/c1ccc([N+](=O)[O-])o1,inactive
9,Cc1ccccc1C(=O)Nc1ccnn1C1CCN(Cc2cnn(C(C)C)c2)CC1,"inconclusive: 11.7 µM [inhibitor, single point]"
10,CCCCC(=O)NS(=O)(=O)c1ccc(N=NN2CCOCC2)cc1,inactive
11,Cc1cc(C)cc(N2Cc3ccccc3C2)c1,active: 4.15 µM
12,COc1ccc(CNC(=O)c2noc3c2CCCCC3)cc1,"inconclusive: 13.1 µM [inhibitor, single point]"
13,Cc1ccc([C@@H]2[C@@H]3C(=O)N(C)C(=O)[C@@H]3[C@]3(Cc4ccccc4)C(=O)N(Cc4ccccn4)CC(=O)N23)o1,"inconclusive: 14.7 µM [inhibitor, single point]"
14,CC(CCc1ccccc1)NC(=O)C(=O)c1c[nH]c2ccccc12 (centres undefined),"inconclusive: 18.5 µM [inhibitor, single point]"
15,CCOC(=O)/C=c1\sc2n(c1=O)CCN=2,"inconclusive: 8.28 µM [inhibitor, partial curve]"
16,O=C(COc1ccc(Cl)cc1Cl)N1CCN(C/C=C/c2ccccc2)CC1,"inconclusive: 18.5 µM [inhibitor, single point]"
17,Cc1ccc(S(=O)(=O)N(C)C)cc1NC(=O)COC(=O)/C=C/c1cccs1,inactive
18,O=C(NCc1ccccc1)NCC12CC3CC(CC(C3)C1)C2,"inconclusive: 2.33 µM [inhibitor, partial curve, poor fit]"
19,Clc1cc(Cl)cc(CSc2nnc(-c3sccc3-n3cccc3)o2)c1,"inconclusive: 3.29 µM [inhibitor, partial curve]"
20,COc1ccccc1CCN1CCCC(CN(C)C(=O)CCC(N)=O)C1 (centres undefined),inactive
21,CCCOC1CCCN(C(=O)CCc2nnc(-c3ccc4c(c3)OCO4)o2)C1 (centres undefined),active: 13.1 µM
22,Cc1cccc2cc(CN(CC3CCCO3)C(=O)c3ccco3)c(=O)[nH]c12 (centres undefined),"inconclusive: 5.22 µM [inhibitor, full curve, poor fit]"
23,O=[n+]1c2c(n([O-])c3cc(Br)ccc31)CCC2,"inconclusive: 8.28 µM [inhibitor, partial curve, poor fit]"

row,SMILES,Potency
1,O=[N+]([O-])c1cc(/C=N/Nc2nc(N3CCCCC3)nc(N3CCCCC3)n2)ccc1O,"inconclusive: 11.7 µM [inhibitor, single point]"
2,CC(=O)N(C)c1ccc(NC(=O)C(Sc2ccccc2)c2ccccc2)cc1 (centres undefined),inactive
3,CSc1ccc(/C=C/C(=O)OCC(=O)NC2CCS(=O)(=O)C2)cc1 (centres undefined),"inconclusive: 18.5 µM [inhibitor, single point]"
4,CC1=CC(=O)C(C(C)C)=C/C1=N/OS(=O)(=O)c1ccccc1,"inconclusive: 1.31 µM [inhibitor, full curve]"
5,CSc1cccc(NC(=O)N2CCc3ccc(NC(=O)c4ccccn4)cc3C2)c1,"inconclusive: 18.5 µM [inhibitor, partial curve, poor fit]"
6,COc1ccc(C(=O)Oc2ccc(/C=N/NC(=O)c3cccnc3)cc2OC)cc1,inactive
7,COc1ccc(NC(=O)CN2CCN(C3c4ccccc4-c4ccccc43)CC2)cc1,"inconclusive: 0.0738 µM [inhibitor, full curve, poor fit]"
8,CC(C)C(=O)NNC(=O)CSc1nnc(-c2ccccc2)c(-c2ccccc2)n1,"inconclusive: 18.5 µM [inhibitor, single point]"
9,CN(C)CCNC(=O)Cn1nc(-c2ccc(Cl)cc2)ccc1=O,"inconclusive: 10.4 µM [inhibitor, partial curve]"
10,Cc1noc(C)c1C(=O)OCC(=O)N1CCN(S(=O)(=O)c2ccc3ccccc3c2)CC1,inactive
11,O=P(O)(CCc1ccccn1)CN1CCOCC1,active: 5.22 µM
12,CN1CC=C2C(C#N)=C(N)C(C#N)(C#N)C(c3ccsc3)C2C1 (centres undefined),"inconclusive: 0.37 µM [inhibitor, full curve, poor fit]"
13,Cc1ccc(NC(=O)CCc2c[nH]c3ccccc23)nc1,"inconclusive: 3.7 µM [inhibitor, single point]"
14,O=S(Cc1cc(Oc2ccccc2)nc(-c2ccccc2)n1)c1ccccc1 (centres undefined),"inconclusive: 18.5 µM [inhibitor, single point]"
15,COc1ccc2nc3c(cc2c1)c(NC(=O)C1CCCO1)nn3CC(C)C (centres undefined),"inconclusive: 18.5 µM [inhibitor, single point]"
16,C/C(=N/NC(=O)Cc1cc(=O)[nH][nH]1)c1ccc([N+](=O)[O-])cc1,inactive
17,O/N=C/c1ccnc(SCc2ccccc2)n1,inactive
18,c1ccc(-c2cc3n(c2)CCc2ccccc2-3)cc1,inactive
19,Cc1ccc(NC(=O)c2oc3ccccc3c2C)c([N+](=O)[O-])c1,"inconclusive: 18.5 µM [inhibitor, single point]"
20,CCCC(C)c1nnc(NC(=O)CS(=O)(=O)Cc2ccccc2)s1 (centres undefined),"inconclusive: 0.0029 µM [inhibitor, full curve, poor fit]"
21,Cc1ccccc1NC(=O)CC(=O)Nc1ccccc1C,inactive
22,CCN(CC)CCn1c2ccccc2c2cnc(N)c(C#N)c21,active: 2.62 µM
23,Cn1ccnc1SCC(=O)c1ccc([N+](=O)[O-])cc1,"inconclusive: 0.0041 µM [inhibitor, partial curve, poor fit]"

row,SMILES,Potency
1,O=C(NCCCN1CCCCC1)C1CCN(S(=O)(=O)N2CCC3(CC2)OCCO3)CC1,"inconclusive: 4.65 µM [inhibitor, partial curve]"
2,CCC(=O)Nc1ccc(C(=O)Nc2ccc(Br)cc2F)cc1,"inconclusive: 0.0033 µM [inhibitor, full curve, poor fit]"
3,O=C(Nc1ccc(F)cc1)/C(=C1/CCCCCN1)[N+](=O)[O-],inactive
4,O=C1c2cccc3c([N+](=O)[O-])ccc(c23)C(=O)N1CCc1ccccn1,inactive
5,CCOc1ccccc1NC(=S)NC1CC2CCC1C2 (centres undefined),active: 5.22 µM
6,Cc1nn(-c2ccccc2)c(Cl)c1/C=N/Nc1nncc(=O)[nH]1,inactive
7,COc1cccc(CN(C)CC(=O)Nc2ccccc2C(=O)Nc2ccccc2)c1,"inconclusive: 10.4 µM [inhibitor, single point]"
8,CN1C(=O)C2(C(C#N)=C(N)N(c3cc(Cl)cc(Cl)c3)C3=C2C(=O)CC(C)(C)C3)c2ccccc21 (centres undefined),"inconclusive: 0.329 µM [inhibitor, full curve]"
9,Cc1ccc2c(-c3csc(N)n3)c[nH]c2c1,"inconclusive: 18.5 µM [inhibitor, single point]"
10,CCOc1ccc(C2=C/C(=C/c3cccnc3)C(=O)O2)cc1,"inconclusive: 3.7 µM [inhibitor, full curve, poor fit]"
11,Cc1cccc(OC(=O)c2cccnc2)c1C,"inconclusive: 18.5 µM [inhibitor, single point]"
12,CCN1CCN(CC(=O)c2c(C)n(C)c3ccc(OC)cc23)CC1,"inconclusive: 16.5 µM [inhibitor, single point]"
13,CCCOc1ccccc1-n1sc2c(c1=S)-c1cc(OC)cc3c1N(C(=O)C3=O)C2(C)C,"inconclusive: 11.7 µM [inhibitor, partial curve, poor fit]"
14,Cc1cccc(OCCCC(=O)Nc2ccc(S(=O)(=O)N3CCCC3)cc2)c1,"inconclusive: 10.4 µM [inhibitor, partial curve, poor fit]"
15,Cc1cccn2c(=O)c3cc(C(=O)NCCc4ccccc4)c(=N)n(Cc4ccco4)c3nc12,"inconclusive: 18.5 µM [inhibitor, single point]"
16,O=C(Nc1cccc(S(=O)(=O)N2CCOCC2)c1)c1cccc(S(=O)(=O)N2CCCC2)c1,"inconclusive: 9.28 µM [inhibitor, single point]"
17,CC(NCc1cc(Br)ccc1OCC(=O)NCc1ccccc1)c1ccccc1 (centres undefined),"inconclusive: 14.7 µM [inhibitor, single point]"
18,CCc1ccc(CN(C)CC(=O)Nc2ccc(S(=O)(=O)N3CCOCC3)cc2)cc1,"inconclusive: 11.7 µM [inhibitor, single point]"
19,Cc1ccc2c(CC(=O)OCC(=O)Nc3ccc(Cl)cn3)coc2c1,inactive
20,C/C(=N\NC(=O)c1ccc(O)cc1)c1cccc(NC(=O)c2ccccc2C)c1,"inconclusive: 10.4 µM [inhibitor, single point]"
21,COc1cc(CN=C(C)c2c(O)n(C3CCCCC3)c(=O)[nH]c2=O)cc(OC)c1,inactive
22,COc1ccc(/C=N/NC(=O)Nc2cccc3nsnc23)cc1OC,inactive
23,CC(C)c1[nH]nc2c1C(C1C=CCCC1)C(C#N)=C(N)O2 (centres undefined),"inconclusive: 11.7 µM [inhibitor, single point]"

# Entries listed so far containing a furan ring, fused or not, in the order listed:
row,SMILES,Potency
8,O=C(CC12CC3CC(CC(C3)C1)C2)N/N=C/c1ccc([N+](=O)[O-])o1,inactive
13,Cc1ccc([C@@H]2[C@@H]3C(=O)N(C)C(=O)[C@@H]3[C@]3(Cc4ccccc4)C(=O)N(Cc4ccccn4)CC(=O)N23)o1,"inconclusive: 14.7 µM [inhibitor, single point]"
22,Cc1cccc2cc(CN(CC3CCCO3)C(=O)c3ccco3)c(=O)[nH]c12 (centres undefined),"inconclusive: 5.22 µM [inhibitor, full curve, poor fit]"
19,Cc1ccc(NC(=O)c2oc3ccccc3c2C)c([N+](=O)[O-])c1,"inconclusive: 18.5 µM [inhibitor, single point]"
15,Cc1cccn2c(=O)c3cc(C(=O)NCCc4ccccc4)c(=N)n(Cc4ccco4)c3nc12,"inconclusive: 18.5 µM [inhibitor, single point]"
19,Cc1ccc2c(CC(=O)OCC(=O)Nc3ccc(Cl)cn3)coc2c1,inactive
